Positions count from the first letter of the chain named. These are yes or no findings as the source states them, for the method shown. Some entries that bind do so weakly or less than the wild type. Where a sequence is shown, tags or fusion partners need not be part of it. Each block holds one binder with its values, some of them ahead of it.
Columns and labels:
[1] = biological target: T1, human CD99/Fc fusion protein (human) (UniProt P14209); assay: ELISA
T1 sequence (looked up): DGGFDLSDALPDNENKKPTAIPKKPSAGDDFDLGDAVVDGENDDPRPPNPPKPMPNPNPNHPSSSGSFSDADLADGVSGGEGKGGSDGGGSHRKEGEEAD

[2] = biological target: T1, human CD99/Fc fusion protein (human); assay: ELISA, coated human CD99/Fc
[3] = biological target: T1, human CD99/Fc fusion protein (human); assay: ELISA, coated human CD99/Fc, anti-human kappa-HRP

binding [1]: binds
binding [2]: binds
binding [3]: binds
B1: humanized 12E7-G1 (antibody, V domains shown)
VH: QVQLVQSGAEVKKPGASVKVSCKASGYTFKDTYIHWVRQAPGQGLEWMGRIDPANGNTKYDPKFQGRVTMTRDTSISTAYMELSRLRSDDTAVYYCARRGGVDWGQGTLVTVSS
VL: DIVMTQTPLSLSVTPGQPASISCKSSQSLLDGDGKTYLNWLLQKPGQSPQRLIYLVSKLDSGVPDRFSGSGSGTDFTLKISRVEAEDVGVYYCWQGTHFPRTFGQGTKLEIK

binding [1]: binds
B2: Hu12E7-2-G1 (antibody, V domains shown)
VH: B1 VH with Y27F, T28N, F29I
VL: B1 VL
